This experiment concerns the target fused in sarcoma (FUS) (human (endogenous in ESCC cells)) (UniProt P35637). As to the kind of experiment: co-IP; co-IP with both anti-FUS and anti-p300 antibodies in ESCC cells, endogenous proteins.

Amino acid sequences for entries named in this document (tags omitted).
UniProt P35637: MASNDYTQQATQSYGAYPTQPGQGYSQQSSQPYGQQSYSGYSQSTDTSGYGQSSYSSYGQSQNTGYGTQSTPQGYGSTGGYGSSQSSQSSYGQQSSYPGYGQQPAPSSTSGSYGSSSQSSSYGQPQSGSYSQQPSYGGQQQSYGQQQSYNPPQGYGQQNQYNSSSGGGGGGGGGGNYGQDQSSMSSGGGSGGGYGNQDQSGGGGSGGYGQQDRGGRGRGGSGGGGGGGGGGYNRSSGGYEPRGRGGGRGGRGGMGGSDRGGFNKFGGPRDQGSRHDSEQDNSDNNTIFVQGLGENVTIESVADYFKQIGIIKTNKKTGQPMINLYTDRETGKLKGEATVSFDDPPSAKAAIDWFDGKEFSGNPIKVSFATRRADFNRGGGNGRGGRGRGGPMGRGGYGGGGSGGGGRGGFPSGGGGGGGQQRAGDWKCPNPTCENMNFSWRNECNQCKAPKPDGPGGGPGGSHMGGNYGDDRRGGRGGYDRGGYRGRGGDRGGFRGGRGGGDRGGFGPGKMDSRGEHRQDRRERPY
UniProt Q09472: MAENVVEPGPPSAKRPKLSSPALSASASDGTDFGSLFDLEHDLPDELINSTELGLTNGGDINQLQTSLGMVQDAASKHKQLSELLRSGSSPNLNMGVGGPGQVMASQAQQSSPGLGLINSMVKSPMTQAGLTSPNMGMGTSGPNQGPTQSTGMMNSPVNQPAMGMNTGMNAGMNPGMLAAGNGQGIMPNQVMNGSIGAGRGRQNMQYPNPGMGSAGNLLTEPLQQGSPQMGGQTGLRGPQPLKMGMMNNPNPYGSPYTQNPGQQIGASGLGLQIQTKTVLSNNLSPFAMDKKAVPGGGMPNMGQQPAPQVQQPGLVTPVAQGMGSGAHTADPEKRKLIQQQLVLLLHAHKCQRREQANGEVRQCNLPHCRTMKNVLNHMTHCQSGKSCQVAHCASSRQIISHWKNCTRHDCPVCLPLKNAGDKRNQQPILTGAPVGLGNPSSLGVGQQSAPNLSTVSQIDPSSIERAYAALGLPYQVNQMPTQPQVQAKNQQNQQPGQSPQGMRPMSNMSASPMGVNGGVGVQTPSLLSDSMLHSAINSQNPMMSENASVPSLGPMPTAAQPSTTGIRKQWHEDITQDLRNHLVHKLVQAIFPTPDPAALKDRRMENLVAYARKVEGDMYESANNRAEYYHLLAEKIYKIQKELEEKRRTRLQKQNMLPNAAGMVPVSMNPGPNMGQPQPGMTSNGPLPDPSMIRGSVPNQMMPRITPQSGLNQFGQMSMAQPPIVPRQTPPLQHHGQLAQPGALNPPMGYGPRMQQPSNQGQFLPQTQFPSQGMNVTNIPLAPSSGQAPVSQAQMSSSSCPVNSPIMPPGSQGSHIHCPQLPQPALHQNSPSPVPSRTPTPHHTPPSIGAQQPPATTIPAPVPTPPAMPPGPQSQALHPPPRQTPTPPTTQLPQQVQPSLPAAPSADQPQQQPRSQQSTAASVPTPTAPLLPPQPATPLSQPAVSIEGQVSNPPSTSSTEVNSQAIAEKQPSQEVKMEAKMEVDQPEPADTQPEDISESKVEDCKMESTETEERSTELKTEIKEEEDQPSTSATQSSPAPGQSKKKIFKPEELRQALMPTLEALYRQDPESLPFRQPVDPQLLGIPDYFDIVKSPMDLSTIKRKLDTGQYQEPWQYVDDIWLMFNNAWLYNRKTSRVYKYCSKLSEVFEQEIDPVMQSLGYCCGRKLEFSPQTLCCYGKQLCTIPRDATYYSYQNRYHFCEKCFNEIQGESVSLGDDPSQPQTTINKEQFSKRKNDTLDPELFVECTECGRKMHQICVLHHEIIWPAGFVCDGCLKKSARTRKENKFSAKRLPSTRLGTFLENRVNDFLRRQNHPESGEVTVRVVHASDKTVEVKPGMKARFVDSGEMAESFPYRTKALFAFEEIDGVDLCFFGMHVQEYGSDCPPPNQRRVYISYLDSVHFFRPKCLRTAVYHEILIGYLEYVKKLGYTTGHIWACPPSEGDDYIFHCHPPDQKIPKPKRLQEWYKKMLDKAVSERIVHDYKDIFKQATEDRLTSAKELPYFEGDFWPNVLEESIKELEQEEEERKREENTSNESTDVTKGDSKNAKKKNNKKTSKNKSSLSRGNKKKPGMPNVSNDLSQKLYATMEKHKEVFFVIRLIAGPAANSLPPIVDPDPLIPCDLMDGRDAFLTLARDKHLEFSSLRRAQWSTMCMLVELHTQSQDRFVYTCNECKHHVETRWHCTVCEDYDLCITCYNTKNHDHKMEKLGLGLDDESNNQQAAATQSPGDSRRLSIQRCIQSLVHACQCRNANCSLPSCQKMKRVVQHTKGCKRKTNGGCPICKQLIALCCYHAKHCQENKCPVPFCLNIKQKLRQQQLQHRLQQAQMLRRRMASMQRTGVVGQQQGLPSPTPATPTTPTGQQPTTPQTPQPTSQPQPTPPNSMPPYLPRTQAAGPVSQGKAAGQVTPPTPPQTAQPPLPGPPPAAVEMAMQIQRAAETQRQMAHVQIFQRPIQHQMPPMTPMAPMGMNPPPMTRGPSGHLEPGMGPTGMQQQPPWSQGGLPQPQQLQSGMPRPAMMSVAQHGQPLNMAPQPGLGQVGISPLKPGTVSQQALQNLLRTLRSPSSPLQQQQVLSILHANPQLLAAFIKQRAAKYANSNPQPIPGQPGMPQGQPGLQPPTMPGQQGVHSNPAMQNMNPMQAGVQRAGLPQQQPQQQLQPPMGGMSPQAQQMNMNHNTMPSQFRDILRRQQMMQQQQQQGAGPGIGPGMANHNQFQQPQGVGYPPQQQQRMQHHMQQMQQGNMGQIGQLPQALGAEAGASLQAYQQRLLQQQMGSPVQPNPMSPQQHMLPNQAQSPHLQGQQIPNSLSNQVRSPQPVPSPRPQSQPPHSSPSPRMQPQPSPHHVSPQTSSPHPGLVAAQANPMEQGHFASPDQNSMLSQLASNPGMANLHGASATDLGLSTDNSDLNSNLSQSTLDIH

No constants are given. Whether binding was seen depends on the method and setting. In cells and extracts the contact can be indirect. Some entries that bind do so weakly or less than the wild type.

From publication PMC9243820 come the findings set out here.

Regarding p300 (from UniProt Q09472 1-2414), the binding result is “binds”.
